Measured values from patent US11326992B2 (priority 2016, dated 2022).
Some of these results come from one statement about several compounds together.

Experiment: Short term on-card stability
Conditions: stored at RT+air, by day 3

Compound: COc1ccc2c3c1O[C@H]1C(=O)CC[C@@]4(O)[C@@H](C2)N(C)CC[C@]314 [Oxycodone]
- on-card decomposition: > 50%

Compound: COc1ccc2c3c1O[C@H]1C(=O)CC[C@H]4[C@@H](C2)N(C)CC[C@]314 [Hydrocodone]
- on-card decomposition: > 50%

Compound: CNC(C)C(=O)c1ccc(C)cc1 (stereo not drawn) [Mephedrone]
- on-card decomposition: > 50%
